Experimental data from PubChem BioAssay AID248 (DTP/NCI, 2004).
The list is a part of this screen's results and no random one: it is rich in T/C values a quarter to a half above the control, in often repeated tests (any T/C) and in doses without a T/C. Further doses and runs are listed elsewhere. T/C: endpoint of the treated group in % of that of the vehicle group. Some entries give survivors of the animals treated and no T/C: the source holds a T/C of zero for them, seemingly a mark for toxic or unscored doses. Some survivor counts are full or nearly so, which does not show that the dose was tolerated: survival well below the control is almost never listed, so the zero probably covers shortened survival too. Survivors were counted at the toxicity check, usually on the fifth day, unless a day is given; later deaths do not show. Schedules are NCI's codes, taken here to give the interval after Q, in days (D) or hours (H), and the number of doses after X.

Tested on: L1210 leukemia ip in BDF1 mice, survival T/C
Experiment: NCI In Vivo Anticancer Drug Screen. Data for tumor model L1210 Leukemia (intraperitoneal) in B6D2F1 (BDF1) mice
Conditions: T/C endpoint: mean survival time, higher T/C = longer survival
[1] = dose: 400.0 mg/kg/injection, schedule: Q01DX009 (ip), vehicle: saline with Tween-80
[2] = dose: 400.0 mg/kg/injection, schedule: Q01DX009 (ip), vehicle: Klucel (hydroxypropylcellulose) (HPC)
[3] = dose: 50.0 mg/kg/injection, schedule: Q01DX001 (ip), vehicle: saline
[4] = dose: 100.0 mg/kg/injection, schedule: Q01DX001 (ip), vehicle: saline
[5] = dose: 200.0 mg/kg/injection, schedule: Q01DX001 (ip), vehicle: saline
[6] = dose: 400.0 mg/kg/injection, schedule: Q01DX001 (ip), vehicle: saline
[7] = dose: 100.0 mg/kg/injection, schedule: Q04DX003 (ip), vehicle: saline

C=C(C)CNc1ccccc1
survivor count [1]: 2 of 6

CC1N2CC12c1ccccc1 (stereo unspecified)
survivor count (dose: 100.0 mg/kg/injection, schedule: Q04DX002 (ip), vehicle: saline): 0 of 3
survivor count (dose: 200.0 mg/kg/injection, schedule: Q04DX002 (ip), vehicle: saline): 0 of 3
survivor count (dose: 400.0 mg/kg/injection, schedule: Q04DX002 (ip), vehicle: saline): 0 of 3

O=C1C=CC(=O)N1c1ccc(Br)cc1Cl
survivor count (dose: 6.25 mg/kg/injection, schedule: Q04DX003 (ip), vehicle: saline with Tween-80): 6 of 6
survivor count (dose: 12.5 mg/kg/injection, schedule: Q04DX003 (ip), vehicle: saline with Tween-80): 6 of 6
survivor count (dose: 100.0 mg/kg/injection, schedule: Q01DX009 (ip), vehicle: Klucel (hydroxypropylcellulose) (HPC)): 0 of 6
survivor count (dose: 100.0 mg/kg/injection, schedule: Q04DX003 (ip), vehicle: saline with Tween-80): 0 of 6
survivor count (dose: 200.0 mg/kg/injection, schedule: Q01DX009 (ip), vehicle: Klucel (hydroxypropylcellulose) (HPC)): 0 of 6
survivor count (dose: 200.0 mg/kg/injection, schedule: Q04DX003 (ip), vehicle: Klucel (hydroxypropylcellulose) (HPC)): 3 of 6
survivor count (dose: 200.0 mg/kg/injection, schedule: Q04DX003 (ip), vehicle: saline with Tween-80): 0 of 6
survivor count [2]: 0 of 6
survivor count (dose: 400.0 mg/kg/injection, schedule: Q04DX003 (ip), vehicle: Klucel (hydroxypropylcellulose) (HPC)): 0 of 6
survivor count (dose: 400.0 mg/kg/injection, schedule: Q04DX003 (ip), vehicle: saline with Tween-80): 0 of 6

CC1=CC(=O)C=CC1=O
survivor count (dose: 10.0 mg/kg/injection, schedule: Q01DX001 (ip), vehicle: saline): 2 of 4
survivor count (dose: 20.0 mg/kg/injection, schedule: Q01DX001 (ip), vehicle: saline): 0 of 4
survivor count (dose: 40.0 mg/kg/injection, schedule: Q01DX001 (ip), vehicle: saline): 0 of 4
survivor count [3]: 0 of 4
survivor count (dose: 80.0 mg/kg/injection, schedule: Q01DX001 (ip), vehicle: saline): 0 of 4
survivor count [4]: 0 of 4
survivor count [5]: 0 of 4
survivor count [6]: 0 of 4

CC(C)CCCC(=O)CCCCCCC(=O)CCN(O)C(=O)C(N)CO (stereo unspecified)
survivor count (dose: 50.0 mg/kg/injection, schedule: Q01DX009 (ip), vehicle: acetone): 2 of 6
survivor count (dose: 100.0 mg/kg/injection, schedule: Q04DX003 (ip), vehicle: acetone): 6 of 6
survivor count (dose: 200.0 mg/kg/injection, schedule: Q01DX001 (ip), vehicle: acetone): 2 of 6
survivor count (dose: 400.0 mg/kg/injection, schedule: Q01DX001 (ip), vehicle: acetone): 0 of 6

CN(C)C(=S)SSSSC(=S)N(C)C
survivor count (dose: 100.0 mg/kg/injection, schedule: Q04DX002 (ip), vehicle: Klucel (hydroxypropylcellulose) (HPC)): 3 of 3
survivor count (dose: 200.0 mg/kg/injection, schedule: Q04DX002 (ip), vehicle: Klucel (hydroxypropylcellulose) (HPC)): 3 of 3

Cc1c(Cl)cccc1NC(=O)Oc1ccc(F)cc1Cl
survivor count [2]: 0 of 6

CCOC(=O)OC(=O)CNC(=O)CN1C(=O)c2ccccc2C1=O
survivor count [3]: 4 of 4

CCNc1nc(Cl)nc(-c2cn(-c3ccccc3)c3ccccc23)n1
survivor count [1]: 6 of 6

O=C(O)/C=C(\Cl)CC(=O)O
survivor count [6]: 0 of 6

CN1CCC23CCCCC2C1Cc1ccc(O)cc13 (stereo unspecified)
survivor count (dose: 150.0 mg/kg/injection, schedule: Q01DX001 (ip), vehicle: saline): 1 of 6
survivor count (dose: 300.0 mg/kg/injection, schedule: Q01DX001 (ip), vehicle: saline): 0 of 6

N#CCC[CH2][Sn]([Br])([Br])[c]1ccccc1
survivor count (dose: 50.0 mg/kg/injection, schedule: Q04DX003 (ip), vehicle: saline): 0 of 3
survivor count [7]: 1 of 3
survivor count (dose: 200.0 mg/kg/injection, schedule: Q04DX003 (ip), vehicle: saline): 0 of 3

c1cc(C[N+]23CN4CN(CN(C4)C2)C3)cs1
survivor count [7]: 6 of 6

Cc1c(C(=O)NN)sc2ccccc12
survivor count [4]: 2 of 4
survivor count [5]: 2 of 4
survivor count [6]: 0 of 4
